Values of other authors in patent US8455194B2, “Diagnostic methods” (Isis Innovation Limited, priority 2008, dated 2013).

System: SLCO1B1 rs4149056 SNP
Details: summary estimate with interval in brackets; cited from earlier work

In the case of CC(C)c1c(C(=O)Nc2ccccc2)c(-c2ccccc2)c(-c2ccc(F)cc2)n1CC[C@@H](O)C[C@@H](O)CC(=O)O [Atorvastatin (acid), Atorvastatin], the “% higher AUC per C allele among studies of this statin” value is given as 54 (24, 92) %.
